For 54 compounds, AC50 results are on record in PubChem BioAssay AID1487 (National Center for Advancing Translational Sciences (NCATS), 2009).

The other results are listed elsewhere or left out. Shown are side measurements of this screen, not its main read-out; they come without a call. Compounds called inactive in the main read-out are mostly missing here. Potencies come from curve fits of mixed quality, noted in brackets.

As a reminder, the AC50 is the concentration giving half of the maximal activity seen.

The test is described as follows: qHTS Assay for Modulators of Lamin A Splicing. The settings on record: HeLa LMNA splicing GFP/RFP minigene ratio, 48 h. In a few lines:
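S3 HeLa stable clones carrying a lamin A-EGFP splicing minigene plus DsRed2 were seeded at 600 cells/well in Opti-MEM with 2% FBS, pin-dosed and incubated 48 h at 37°C. Acumen cytometry (488 nm) gave the GFP/RFP total-intensity ratio.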

[1] abbreviates: measured here: RFP viability control channel.
[2] abbreviates: measured here: GFP splicing reporter channel.

`COCCn1c(=NC(=O)CSCC(=O)NC2CCCCC2)sc2cc(OC)ccc21`: the concentration at half-maximal activity (AC50) under setting [1] is 12.6 µM [rising, partial curve, poor fit].

With `Cc1ccc(Cn2cnc3sc4c(c3c2=O)CCC4)c(C)c1`, the AC50 is, setting by setting: under setting [2], 31.6 µM [rising, single point]; under setting [1], 28.2 µM [rising, single point].

Consider `CC(=O)c1c(C)[nH]c(C(=O)Nc2ccc(Cl)c(S(=O)(=O)N(C)C)c2)c1C`, for which the concentration at half-maximal activity (AC50) under setting [1] is 6.31 µM [rising, full curve]. In the case of `COc1ccc(NS(=O)(=O)c2ccc(NC(=O)C3CCCO3)cc2)cc1` (centres undefined), under setting [1], the AC50 was 25.1 µM [rising, partial curve].

Turning to `CCCCOc1ccccc1C1CC(=O)NC2=C1C(=O)CCC2` (centres undefined), the AC50 was 2.82 µM [falling, full curve] under setting [2] and 3.16 µM [falling, full curve] under setting [1].

For the compound `COc1ccccc1/C=C(/C#N)C(=O)O`, the AC50 under setting [1] is 2.82 µM [rising, single point]. Take `CN(C)S(=O)(=O)c1ccc(C(=O)NCc2ccc3[nH]c4c(c3c2)CCCC4)cc1`: under setting [1], the AC50 is 12.6 µM [rising, single point].

As for `O=C(Nc1ccc2c(c1)OCO2)c1ccc(CN2CCOCC2)cc1`, the concentration at half-maximal activity (AC50) under setting [1] was 25.1 µM [rising, single point].

Regarding `Cc1ccc(C)c(NC(=O)c2cc(S(=O)(=O)NCCc3ccccc3)ccc2F)c1`, the AC50 under setting [2] was 0.01 µM [falling, full curve]. Take `COc1cccc(C(=O)Nc2c(C)nn(-c3ccccc3)c2C)c1`: the AC50 by setting is: under setting [2], 0.0126 µM [falling, full curve]; under setting [1], 0.0126 µM [falling, full curve, poor fit]. On to `O=C(Oc1c(CN2CCOCC2)cc(Cl)c2cccnc12)c1ccc(F)cc1`, for which the AC50 under setting [1] was 31.6 µM [rising, single point]. `O=C(O)CC1(CC(=O)Nc2cc3ccccc3cn2)CCCCC1`: the half-maximal activity concentration (AC50) under setting [2] is 35.5 µM [falling, single point]. Turning to `Cc1ccc(S(=O)(=O)CCC(=O)Nc2cccc(C)c2)cc1`, the AC50 under setting [2] is 10 µM [rising, partial curve]. Take `CN(C)c1ccc(-c2nccc(NCCN3CCOCC3)n2)cc1`: the AC50 is, setting by setting: under setting [2], 14.1 µM [rising, single point]; under setting [1], 35.5 µM [rising, single point]. `COc1ccc(C(=O)/C(C#N)=N/Nc2ccc([N+](=O)[O-])cc2)cc1`: the AC50 by setting is: under setting [2], 6.31 µM [falling, partial curve, poor fit]; under setting [1], 12.6 µM [falling, single point].

As to `CCc1cnc2c(c1SCc1c(F)cccc1Cl)c(=O)n(C)c(=O)n2C`, the AC50 is 0.0562 µM [rising, full curve, poor fit] under setting [2] and 2.51 µM [rising, partial curve] under setting [1]. Regarding `Cc1ccc2[nH]c(=O)c(CN(CCN3CCOCC3)C(=O)Nc3ccc(F)cc3)cc2c1`, the AC50 under setting [1] was 12.6 µM [rising, single point].

`CCOC(=O)c1c(NC(=O)c2ccc(S(=O)(=O)N3CCC(C)CC3)cc2)sc2c1CCN(C(C)C)C2`: the AC50 was 20 µM [falling, partial curve, poor fit] under setting [2] and 25.1 µM [falling, partial curve] under setting [1].

For `CCCCCC(=O)Nc1nc(C)c(-c2csc(Nc3cc(OC)ccc3OC)n2)s1`, the AC50 under setting [2] is 12.6 µM [falling, partial curve, poor fit] and the AC50 under setting [1] is 3.55 µM [falling, full curve, poor fit]. As to `COc1ccc(C2=NN(C(=O)CSc3cn(C)c4ccccc34)C(c3ccc(OC)cc3)C2)cc1` (centres undefined), the AC50 under setting [1] is 15.8 µM [rising, single point]. Take `Fc1cccc(-n2c(-c3ccco3)nc3nc4ccccc4nc32)c1`: the AC50 was 8.91 µM [rising, partial curve, poor fit] under setting [2] and 2.51 µM [rising, full curve, poor fit] under setting [1]. On to `Cn1nnnc1SCCNCc1cc(Cl)ccc1OCc1ccccc1`, for which the AC50 under setting [1] was 35.5 µM [rising, single point]. On to `CCOc1ccc2nc(S(N)(=O)=O)sc2c1`, for which the AC50 under setting [1] is 20 µM [rising, partial curve, poor fit].

As for `COC(=O)[C@@]1(Cc2ccc(OC)cc2)[C@H]2c3cc(C(=O)N4CCCC4)n(Cc4ccc(C)o4)c3C[C@H]2CN1C(=O)c1ccccc1`, the AC50 is 3.55 µM [rising, single point] under setting [2] and 12.6 µM [rising, partial curve] under setting [1]. Consider `O=C(CSCc1ccc(Br)cc1)N=Nc1c(O)[nH]c2ccccc12`, for which the AC50 under setting [1] was 35.5 µM [rising, partial curve, poor fit]. Turning to `Cc1cccc(CCNC(=O)C2CCC(CNS(=O)(=O)c3c(C)cc(C)cc3C)CC2)c1` (centres undefined), the AC50 under setting [1] is 0.282 µM [falling, full curve, poor fit]. In the case of `O=C(Cc1ccc(NC(=O)N2CCCCc3ccccc32)cc1)NCc1ccccc1Br`, the AC50 runs as follows: under setting [2], 0.0355 µM [falling, full curve, poor fit]; under setting [1], 0.0447 µM [falling, full curve, poor fit]. As for `CCc1ccc(NC(=O)CSc2nc3n[nH]c(C)c3c(=N)n2-c2ccc(C)cc2)cc1`, under setting [1], the AC50 was 22.4 µM [falling, partial curve, poor fit]. For the compound `CCOc1ccc(C(CC(=O)O)n2cnnn2)cc1OC` (centres undefined), the AC50 under setting [2] was 1.78 µM [rising, single point]. For `Cc1ccc(C(=O)c2cc([N+](=O)[O-])ccc2N2CCCCC2)cc1C`, the half-maximal activity concentration (AC50) under setting [1] is 2.82 µM [rising, partial curve]. As to `Nc1ccc(N)c(C(=O)O)c1`, the AC50 under setting [2] was 0.158 µM [rising, full curve, poor fit]. With `Cc1cccc(NC(=O)c2ccc([N+](=O)[O-])o2)n1`, the half-maximal activity concentration (AC50) is 12.6 µM [falling, partial curve] under setting [2] and 22.4 µM [falling, partial curve] under setting [1].

Consider `Cc1cc([N+](=O)[O-])nn1CC(=O)NNC(=S)Nc1ccc(Cl)cc1`, for which the AC50 by setting is: under setting [2], 2.24 µM [rising, full curve]; under setting [1], 3.55 µM [rising, full curve, poor fit]. Take `COc1ccc(C(=O)C2CC2c2ccc3c(c2)OCO3)cc1` (centres undefined): the concentration at half-maximal activity (AC50) under setting [2] was 35.5 µM [falling, partial curve, poor fit]. As for `COc1ccc(/C=N/Nc2nc(-c3cccc(S(=O)(=O)N4CCCC4)c3)cs2)cc1OC`, the AC50 by setting is: under setting [2], 5.01 µM [rising, partial curve]; under setting [1], 10 µM [rising, partial curve]. For `CCN(CC)C(=O)C1CC(=O)OC1(C)C` (centres undefined), the AC50 runs as follows: under setting [2], 15.8 µM [falling, single point]; under setting [1], 20 µM [falling, single point]. For the compound `CC(C)CCNC(=O)c1cccc(S(=O)(=O)N2CCc3ccccc32)c1`, the half-maximal activity concentration (AC50) under setting [2] was 17.8 µM [rising, partial curve, poor fit] and the AC50 under setting [1] was 15.8 µM [rising, single point].

`CCOc1ccc(S(=O)(=O)NCCC(=O)NC2=NCCS2)cc1`: the AC50 under setting [1] is 31.6 µM [rising, single point]. Take `O=C(NC12CC3CC(CC(C3)C1)C2)c1ccc(-c2cccc(Cl)c2)o1`: the AC50 is, setting by setting: under setting [2], 12.6 µM [rising, partial curve]; under setting [1], 14.1 µM [rising, partial curve]. With `COc1ccc(CC(=O)NCCc2sc(-c3ccc(Cl)cc3)nc2C)cc1OC`, the concentration at half-maximal activity (AC50) under setting [1] was 8.91 µM [falling, full curve, poor fit]. For `Cc1[nH]c2ccccc2c1C(c1ccccn1)N1CCC(C)CC1` (centres undefined), under setting [2], the AC50 is 17.8 µM [falling, partial curve]. `Clc1c(CSc2nc3ccccc3o2)nc2sccn12`: under setting [1], the AC50 was 35.5 µM [rising, single point].

In the case of `Cc1cccc(-n2c(SCC(N)=O)nc3c(c2=O)C2(CCCC2)Cc2ccccc2-3)c1`, under setting [1], the AC50 is 14.1 µM [rising, single point].

In the case of `CCN(CC)c1ccc(/C=N/OCC(=O)N2CCCc3ccccc32)cc1`, the AC50 under setting [1] was 2.51 µM [rising, full curve, poor fit]. For `CC(C)c1nc(N(C)S(C)(=O)=O)nc(-c2ccc(F)cc2)c1/C=C/C(O)CC(O)CC(=O)O` (centres undefined), the AC50 under setting [2] is 0.0178 µM [falling, full curve, poor fit]. As to `Cc1cc(C)c2c(CN3CCN(Cc4ccc5c(c4)OCO5)CC3)cc(=O)oc2c1`, the concentration at half-maximal activity (AC50) is 1 µM [rising, partial curve] under setting [2] and 14.1 µM [rising, single point] under setting [1]. `O=c1c(Cc2c(F)cccc2Cl)c(O)ccn1C1CC1`: the AC50 under setting [1] is 0.01 µM [falling, full curve, poor fit].

`CC(=O)NC(c1ccccc1)c1cc([N+](=O)[O-])c2cccnc2c1O` (centres undefined): the AC50 by setting is: under setting [2], 0.631 µM [falling, full curve, poor fit]; under setting [1], 2.82 µM [falling, partial curve, poor fit]. On to `CN=c1scc(C)n1/N=C/c1ccc(O)cc1`, for which the AC50 under setting [1] is 2.24 µM [rising, partial curve, poor fit]. As for `CC1=C(C(=O)OC(C)C)C(c2cncc(-c3ccc(F)cc3)c2)C(C#N)=C(N)O1` (centres undefined), the AC50 under setting [2] is 3.16 µM [rising, partial curve, poor fit].

Take `CCC(C(=O)N1CCN(c2ccccn2)CC1)n1nc(C)n2c(cc3occc32)c1=O` (centres undefined): the AC50 under setting [1] is 14.1 µM [falling, partial curve, poor fit]. On the same count and under the same terms, to `COc1ccc(NC(=O)C(=O)NCCc2sc(-c3ccc(Cl)cc3)nc2C)cc1` belongs 3.55 µM [falling, partial curve].

With `O=C(Nc1ccccc1Cl)OCc1cncs1`, the half-maximal activity concentration (AC50) under setting [2] was 1.58 µM [rising, partial curve, poor fit].

Take `CCCCCn1c(NC(=O)c2ccco2)c(S(=O)(=O)c2ccc(C)cc2)c2nc3ccccc3nc21`: the AC50 was 14.1 µM [rising, partial curve] under setting [2] and 25.1 µM [rising, single point] under setting [1].
